The match of structure and compound is tentative.
Tested on: Hela-ACE cells
Assay: Toxicity testing in uninfected cells
Details: read-out: Uninfected Hela-ACE CC50, 48 hours, Cell-Titer Glo

## CC(C)(C)OC(=O)N[C@H](C(=O)N1C[C@H]2[C@@H]([C@H]1C(=O)NC(C#N)c1cncc(C(F)(F)F)c1)C2(C)C)C(C)(C)C (stereo partly shown)
  CC50: > 39.8 µM

Reference: patent US20240336610A1, “3CL PROTEASE SMALL-MOLECULE INHIBITOR FOR TREATING OR PREVENTING CORONAVIRUS INFECTION, AND USE THEREOF” (THE GLOBAL HEALTH DRUG DISCOVERY INSTITUTE, priority 2021, published 2024)
